Results deposited as PubChem BioAssay AID1159584 (Peter MacCallum Cancer Centre, 2016).
The deposit covers about 18,000 reagents; this is a random part of them. Reagents against one gene are numbered here. Not all columns of the deposit are shown. The record does not give: the amount of reagent, the time to read-out.

- Purpose: 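Knock-downs that harm CDH1-null cells more than parental MCF10A cells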 (primary screen)
- Cell system: human MCF10A breast epithelial cells, parental and CDH1-null
- Reagents: siRNA against human genes
- Read-out: 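ATP luminescence (CellTiter-Glo) viability per line relative to mean mock wells over all plates, and the ratio of CDH1-null to parental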
- Scale: CDH1-null / parental viability ratio: higher = CDH1-null cells survive relatively better than parental

CDH1-null / parental viability ratio, by target and reagent
KLHL28: #1 0.88
PRELID1: #1 0.91
ADAMTSL3: #1 1.04
SULT2A1: #1 0.91
SEL1L3: #1 0.87
ELMO2: #1 1.03
ZRANB1: #1 1.02
CYSTM1: #1 0.96
TUT7: #1 0.92
PAX4: #1 1.07
COMMD9: #1 0.72; #2 0.92
INIP: #1 0.93
TBC1D19: #1 1.2
SRSF2: #1 0.98
NDEL1: #1 0.79
LBP: #1 0.92
DPM2: #1 0.99
EIF5A: #1 1.16
DNAH12: #1 1.48
ZNF451: #1 1.11
TCF21: #1 0.94
STAT5A: #1 1.06
MVD: #1 1.02
CYP7A1: #1 1.04
OR4A15: #1 1.02
JARID2: #1 1.25
OR10AD1: #1 1.15
ACSM4: #1 1.01
ARMC3: #1 1.07
TMEM98: #1 1.01
MCMDC2: #1 0.97
TAS2R5: #1 1.01
PPP1R12B: #1 1.38
SYN1: #1 1.22
OR2A25: #1 0.65
ZNF8: #1 1.21
TRPM4: #1 1.26
ANKRD26: #1 1.06
RPS19BP1: #1 0.93
SEMA6C: #1 1.43
ZBBX: #1 0.92
PPIC: #1 0.95
PRR5: #1 1.14
SMARCE1: #1 1.07
CMSS1: #1 0.97
ZNF114: #1 0.92
FARSB: #1 0.84
PRDM9: #1 1.06
JADE1: #1 1
EPYC: #1 1.17
FIG4: #1 1.16
FTSJ1: #1 1.06
ACVR1C: #1 0.82
RASL11B: #1 0.8
STARD3: #1 1.07
PLPPR4: #1 1.39
THOC5: #1 0.88
CIRSR: #1 1.33
PLPP3: #1 1.37
FAM161A: #1 1.25
CAGE1: #1 1.1
NPTN: #1 1.05
GEN1: #1 0.93
EIF1AX: #1 1.08
MDH1B: #1 0.62
MORC1: #1 0.79
TLK2: #1 0.6

A few values from the list:
JARID2, CDH1-null / parental viability ratio → 1.25
OR4A15, CDH1-null / parental viability ratio → 1.02
TMEM98, CDH1-null / parental viability ratio: 1.01
Under “CDH1-null / parental viability ratio”, ACVR1C reads 0.82
For “CDH1-null / parental viability ratio”, MVD has 1.02
Entry for RASL11B in “CDH1-null / parental viability ratio”: 0.8
